Test results taken from PMC3521008.
No constants are given. Whether binding was seen depends on the method and setting. Some entries that bind do so weakly or less than the wild type.

Target: T1, MTG16 in the pGAD-GW/pGBT9-GW yeast two-hybrid system (UniProt O75081)
T1 sequence: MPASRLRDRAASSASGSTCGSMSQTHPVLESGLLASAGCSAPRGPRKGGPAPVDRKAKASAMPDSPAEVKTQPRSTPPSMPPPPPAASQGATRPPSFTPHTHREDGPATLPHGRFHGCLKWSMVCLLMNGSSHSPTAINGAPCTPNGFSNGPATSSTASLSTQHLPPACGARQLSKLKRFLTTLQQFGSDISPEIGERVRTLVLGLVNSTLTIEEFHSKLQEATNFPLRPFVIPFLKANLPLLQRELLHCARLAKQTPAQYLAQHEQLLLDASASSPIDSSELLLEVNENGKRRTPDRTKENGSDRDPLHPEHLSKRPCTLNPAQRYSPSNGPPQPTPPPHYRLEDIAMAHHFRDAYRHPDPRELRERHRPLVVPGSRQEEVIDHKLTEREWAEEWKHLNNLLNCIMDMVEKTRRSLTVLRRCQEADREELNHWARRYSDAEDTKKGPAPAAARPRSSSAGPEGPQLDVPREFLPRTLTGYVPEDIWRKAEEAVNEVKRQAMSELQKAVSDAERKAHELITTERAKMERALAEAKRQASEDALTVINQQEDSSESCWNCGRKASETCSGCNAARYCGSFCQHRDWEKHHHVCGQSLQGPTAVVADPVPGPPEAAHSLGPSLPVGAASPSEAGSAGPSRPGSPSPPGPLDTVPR
Test: two-hybrid; directed assay in the pGAD-GW/pGBT9-GW system: Kaiso 298-573 with MTG16 and MTG16 deletion constructs; growth on quadruple-dropout plates (-leu, -trp, -his, -ala); empty vector bait as negative control; in triplicate

- binding: binds
B1: Kaiso amino acids 298-573 (yeast two-hybrid clone) (domain or fragment, UniProt Q86T24 298-573)
chain: LPNHMPSSINLLVQNQQTPNSAILTGNKANEEEEEEIIDDDDDTISSSPDSAVSNTSLVPQADTSQNTSFDGSLIQKMQIPTLLQEPLSNSLKISDIITRNTNDPGVGSKHLMEGQKIITLDTATEIEGLSTGCKVYANIGEDTYDIVIPVKDDPDEGEARLENEIPKTSGSEMANKRMKVKHDDHYELIVDGRVYYICIVCKRSYVCLTSLRRHFNIHSWEKKYPCRYCEKVFPLAEYRTKHEIHHTGERRYQCLACGKSFINYQFMSSHIKSVH
